Test [1] concerns the target BioID2-DUSP12 (UniProt Q9UNI6). The experiment in a line: proximity labelling; BioID2-DUSP12 HeLa stable line, 0.1 ug/mL Dox, 100 nM Taxol and 50 uM biotin for 16 h; biotinylated proteins purified on streptavidin Dynabeads; LC-MS/MS.
Test [2] addresses LAP-DUSP12-WT (full length) (UniProt Q9UNI6). The experiment in a line: affinity purification with mass spectrometry; LAP-DUSP12 HeLa stable line induced with 0.1 ug/mL doxycycline, arrested with 100 nM Taxol 18 h; tandem affinity purification (anti-GFP antibody beads, then S-protein Agarose); eluates by LC-MS/MS.

By UniProt entry, the sequences of proteins in these tests, tags left out.
UniProt Q9UNI6: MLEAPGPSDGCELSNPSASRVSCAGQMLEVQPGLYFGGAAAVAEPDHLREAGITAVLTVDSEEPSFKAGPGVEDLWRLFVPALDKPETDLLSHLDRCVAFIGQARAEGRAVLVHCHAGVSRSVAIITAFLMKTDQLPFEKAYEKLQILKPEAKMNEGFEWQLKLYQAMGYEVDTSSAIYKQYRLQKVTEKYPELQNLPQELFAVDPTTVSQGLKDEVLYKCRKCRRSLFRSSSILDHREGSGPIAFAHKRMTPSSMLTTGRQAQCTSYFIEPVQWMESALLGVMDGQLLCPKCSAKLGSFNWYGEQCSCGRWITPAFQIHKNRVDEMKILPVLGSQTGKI

This note sets out measurements from PMC13039736.

These are yes or no findings as the source states them, for the method shown. In cells and extracts the contact can be indirect. Here binding means that the protein was enriched with, or labelled near, the bait; the list need not be complete.

B1: zinc finger protein 622 (ZNF622), endogenous (protein, UniProt Q969S3 1-477)
chain: MATYTCITCRVAFRDADMQRAHYKTDWHRYNLRRKVASMAPVTAEGFQERVRAQRAVAEEESKGSATYCTVCSKKFASFNAYENHLKSRRHVELEKKAVQAVNRKVEMMNEKNLEKGLGVDSVDKDAMNAAIQQAIKAQPSMSPKKAPPAPAKEARNVVAVGTGGRGTHDRDPSEKPPRLQWFEQQAKKLAKQQEEDSEEEEEDLDGDDWEDIDSDEELECEDTEAMDDVVEQDAEEEEAEEGPPLGAIPITDCLFCSHHSSSLMKNVAHMTKDHSFFIPDIEYLSDIKGLIKYLGEKVGVGKICLWCNEKGKSFYSTEAVQAHMNDKSHCKLFTDGDAALEFADFYDFRSSYPDHKEGEDPNKAEELPSEKNLEYDDETMELILPSGARVGHRSLMRYYKQRFGLSRAVAVAKNRKAVGRVLQQYRALGWTGSTGAALMRERDMQYVQRMKSKWMLKTGMKNNATKQMHFRVQVRF
Regarding B1, the binding result in test [1] and in test [2] was “binds” each time.
